Measurements taken from patent publication US20220289816A1, “IMMUNOTHERAPY WITH B*07 RESTRICTED PEPTIDES AND COMBINATION OF PEPTIDES AGAINST CANCERS AND RELATED METHODS” (Immatics Biotechnologies GmbH, priority 2018, published 2022).

Legend:
[1] = tested on: tumor tissue samples and normal tissue samples (HLA-B*07 positive); assay: Identification and quantitation of tumor associated peptides presented on the cell surface (HLA immunoprecipitation, label-free LC-MS); set-up: species or system human; details: Table 8a; cancer entities on which the peptide was found presented (abbreviations in table head)
[2] = tested on: source genes of the peptides (mRNA); assay: Expression profiling of genes encoding the peptides (RNAseq of tumor and normal tissue RNA); set-up: species or system human; details: for Gene Expression in tumor samples: Highly over-expressed (++): tumor entities in which the source gene of the peptide is highly over-expressed compared to a panel of normal tissues (RNAseq); for Gene Expression in tumor samples: over-expressed (+): tumor entities in which the source gene of the peptide is over-expressed compared to a panel of normal tissues (RNAseq); for Gene Expression in tumor samples: very highly over-expressed (+++): tumor entities in which the source gene of the peptide is very highly over-expressed compared to a panel of normal tissues (RNAseq)

Substance	Peptide Presentation on cancer entities [1]	Gene Expression in tumor samples: Highly over-expressed (++) [2]	Gene Expression in tumor samples: over-expressed (+) [2]	Gene Expression in tumor samples: very highly over-expressed (+++) [2]
40: peptide found in MMP1 (gene looked up) (FPRTVKHIDAAL; listed as Homo sapiens) [compound 40]	CRC	HNSCC, NSCLCsquam, OSCAR	CRC, GC, NSCLCadeno, PACA, UBC	
42: peptide found in CCL17 (gene looked up) (APLKMLAL; listed as Homo sapiens) [compound 42]	MEL, OC	NHL		
43: peptide found in BMPR1B (gene looked up) (APTPRPKVL; listed as Homo sapiens) [compound 43]	BRCA	BRCA	PRCA, UEC	
47: peptide found in DNTT (gene looked up) (RPRQTGALM; listed as Homo sapiens) [compound 47]	AML	AML		
48: peptide found in BMPR1B (gene looked up) (RPRYSIGL; listed as Homo sapiens) [compound 48]	BRCA	BRCA	PRCA, UEC	
60: peptide found in F5 (gene looked up) (RPYSIYPHGVTF; listed as Homo sapiens) [compound 60]	CCC, GBC, HCC	HCC	CCC	
66: peptide found in NMUR2 (gene looked up) (LPMTVISVL; listed as Homo sapiens) [compound 66]	GBC		PACA, UEC	
86: peptide found in SLC6A3 (gene looked up) (ALLLRGVTL; listed as Homo sapiens) [compound 86]	SCLC	NSCLCadeno	NSCLCsquam, SCLC	RCC
88: peptide found in MMP26 (gene looked up) (KPSAVKDSIY; listed as Homo sapiens) [compound 88]	HNSCC, RCC	PRCA, SCLC		UEC
90: peptide found in MMP1 (gene looked up) (HAIEKAFQL; listed as Homo sapiens) [compound 90]	CRC		CRC, MEL, NSCLCadeno, PACA	HNSCC
92: peptide found in ENPP3 (gene looked up) (TSPLPPTV; listed as Homo sapiens) [compound 92]	AML, HNSCC	RCC		
106: peptide found in NMUR2 (gene looked up) (APFHIDRLF; listed as Homo sapiens) [compound 106]	OC, RCC		NSCLCsquam, PACA, UEC	
119: peptide found in MYCN (gene looked up) (KATEYVHSL; listed as Homo sapiens) [compound 119]	CRC, UEC	AML, UEC	GBM, MEL, OC, SCLC, UBC	
128: peptide found in LOXL4 (gene looked up) (SPPATLFLFLL; listed as Homo sapiens) [compound 128]	OSCAR	MEL	CCC	
139: peptide found in NMUR2 (gene looked up) (LVILQHQAM; listed as Homo sapiens) [compound 139]	RCC		PACA, UEC	
142: peptide found in QRFPR (gene looked up) (HPFKMKWQY; listed as Homo sapiens) [compound 142]	RCC	RCC	OSCAR	

Substance	Peptide Presentation on cancer entities [1]	Gene Expression in tumor samples: Highly over-expressed (++) [2]	Gene Expression in tumor samples: over-expressed (+) [2]	Gene Expression in tumor samples: very highly over-expressed (+++) [2]
146: peptide found in PTPRZ1 (gene looked up) (SPTRGSEF; listed as Homo sapiens) [compound 146]	GBM	GBM		
147: peptide found in CTLA4 (gene looked up) (HVAQPAVVL; listed as Homo sapiens) [compound 147]	BRCA, HCC	CLL	NHL	
149: peptide found in NAT1 (gene looked up) (SPSSVFTSK; listed as Homo sapiens) [compound 149]	BRCA	BRCA		
152: peptide found in PTPRZ1 (gene looked up) (SSASFSSELFRH; listed as Homo sapiens) [compound 152]	BRCA, CCC, OSCAR, PACA, SCLC, UEC	GBM		
167: peptide found in DNMT3B (gene looked up) (NVNPARKGL; listed as Homo sapiens) [compound 167]	AML	AML	OC, OSCAR	
181: peptide found in ADAM12 (gene looked up) (LPVSPARAL; listed as Homo sapiens) [compound 181]	HNSCC, NSCLCadeno, NSCLCsquam, OSCAR	BRCA, HNSCC, OSCAR	CCC, CRC, GBC, GBM, GC, MEL, NHL, NSCLCadeno, NSCLCother, NSCLCsquam, OC, PACA, UBC, UEC	
182: peptide found in ADAM12 (gene looked up) (RPLPVSPARAL; listed as Homo sapiens) [compound 182]	BRCA, NSCLCadeno, NSCLCsquam	BRCA, HNSCC, OSCAR	CCC, CRC, GBC, GBM, GC, MEL, NHL, NSCLCadeno, NSCLCother, NSCLCsquam, OC, PACA, UBC, UEC	
189: peptide found in APOB (gene looked up) (QPQCSTHIL; listed as Homo sapiens) [compound 189]	CCC, HCC, OSCAR	HCC		
192: peptide found in ROS1 (gene looked up) (IPFADVKSF; listed as Homo sapiens) [compound 192]	NSCLCadeno, NSCLCsquam, SCLC	NSCLCadeno, NSCLCother	NSCLCsquam	
196: peptide found in EGFR (gene looked up) (RPSGTAGAAL; listed as Homo sapiens) [compound 196]	HNSCC, NSCLCsquam, RCC	GBM		
197: peptide found in EGFR (gene looked up) (RPSGTAGAALLA; listed as Homo sapiens) [compound 197]	HCC	GBM		
199: peptide found in MPL (gene looked up) (SPFWIHQA; listed as Homo sapiens) [compound 199]	AML	AML		
202: peptide found in MPL (gene looked up) (SPSREASAL; listed as Homo sapiens) [compound 202]	CLL, GBM, UBC	AML		
208: peptide found in SUCNR1 (gene looked up) (RNRQVATAL; listed as Homo sapiens) [compound 208]	CCC, CRC, GBC, HNSCC	CCC	AML	
215: peptide found in EGFR (gene looked up) (IPVAIKEL; listed as Homo sapiens) [compound 215]	NSCLCother	GBM		
216: peptide found in APOB (gene looked up) (LPWEQNEQV; listed as Homo sapiens) [compound 216]	HCC	HCC		

For part of these data: For expression read-outs the peptide stands for its source gene, whose mRNA was measured; the gene is not named for every peptide.
